Some of the results follow. Shown are side measurements of this screen, not its main read-out; they come without a call. Compounds called inactive in the main read-out are mostly missing here. Potencies come from curve fits of mixed quality, noted in brackets.

Experimental findings from PubChem BioAssay AID1487 (National Center for Advancing Translational Sciences (NCATS), 2009) are described below.

A short description of this experiment: qHTS Assay for Modulators of Lamin A Splicing. The settings on record: HeLa LMNA splicing GFP/RFP minigene ratio, 48 h. The method, boiled down: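 S3 HeLa cells stably expressing lamin A-EGFP splicing minigene plus DsRed2, 600 cells/well, 48 h compound exposure at 37C. Laser-scanning cytometry; analysed as GFP (500-530 nm)/RFP (575-640 nm) total intensity ratio; 0.5% DMSO vehicle.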
For orientation: qHTS replaces the single test concentration by a dilution series.

Setting [1] is: measured here: GFP splicing reporter channel.
Setting [2] is: measured here: RFP viability control channel.

By AC50 is commonly meant the concentration at which the activity in the assay is half-maximal. On to `Cc1cccc(C(=O)NC(=S)NNC(=O)c2ccc(Cl)cc2)c1`, for which the AC50 by setting is: under setting [1], 2.82 µM [rising, full curve]; under setting [2], 6.31 µM [rising, full curve].
For the compound `CCCc1ccc(Oc2c(-c3ccc(O)c(C)c3O)n[nH]c2C)cc1`, the AC50 under setting [2] is 31.6 µM [rising, single point].
With `OCc1ccnc2c(O)cccc12`, the AC50 was 14.1 µM [rising, partial curve] under setting [1] and 15.8 µM [rising, single point] under setting [2].
As to `CCOC(=O)c1sc2nccc(OC)c2c1N=CN(C)C`, under setting [2], the concentration at half-maximal activity (AC50) was 17.8 µM [falling, partial curve, poor fit].
Same read-out and setting: in the case of `COc1cc(NCCC(=O)c2cccs2)c(OC)cc1Cl` it was 0.00891 µM [rising, full curve, poor fit].
Still for that read-out and setting: as for `CN(C)S(=O)(=O)c1ccc(N2CCCC2)c(C(=O)Nc2nc3ccccc3s2)c1`, the figure is 20 µM [rising, single point]; as for `O=C(/C=C\c1ccco1)Nc1nc(-c2ccccc2)cs1`, 20 µM [rising, single point].
For `COC(=O)c1c(NC(=O)c2ccc(Br)o2)sc(C)c1C`, the concentration at half-maximal activity (AC50) under setting [1] is 6.31 µM [rising, single point].
As for `O=C(C(Sc1ccccc1)c1ccccc1)N1CCN(c2ccccc2)CC1` (configuration not stated), the AC50 under setting [2] is 12.6 µM [rising, partial curve].
As for `C=CCn1cnc2scc(-c3ccc(C)c(C)c3)c2c1=O`, the AC50 under setting [1] was 7.08 µM [falling, partial curve] and the AC50 under setting [2] is 7.08 µM [falling, full curve, poor fit].
In the case of `Cc1ccc(SCC(=O)Nc2ccccc2C(=O)N2CCOCC2)cc1`, the AC50 under setting [1] was 0.282 µM [falling, full curve, poor fit].
With `O=[N+]([O-])c1ccc(O)c2cccnc12`, under setting [2], the AC50 is 0.631 µM [falling, partial curve].
As to `Cc1oc2c(c1C(=O)c1ccc(Cl)cc1)C(=O)C(=O)c1ccccc1-2`, the AC50 under setting [1] is 5.62 µM [falling, full curve] and the AC50 under setting [2] was 4.47 µM [falling, full curve].
As to `Clc1cccc(-c2cc3nc4c(c(NCc5ccco5)n3n2)CCCC4)c1`, the concentration at half-maximal activity (AC50) is 20 µM [rising, partial curve, poor fit] under setting [1] and 31.6 µM [rising, single point] under setting [2].
Regarding `Cc1c(Cl)cccc1NC(=O)N1CCN(Cc2cc(=O)n3nc(-c4ccccc4F)sc3n2)CC1`, the AC50 under setting [1] is 0.794 µM [rising, single point].
On to `Cc1nn(C)c2c1c(-c1ccccc1)cc(=O)n2Cc1ccccc1F`, for which the AC50 under setting [2] was 31.6 µM [rising, single point].
Turning to `COc1ccc(/C=C/C(O)=C2/C(=O)N(C)C3(C)CC2c2ccccc2O3)cc1` (configuration not stated), the AC50 reads like this: under setting [1], 35.5 µM [falling, single point]; under setting [2], 15.8 µM [rising, single point].
Regarding `COc1ccc(NC(=O)c2cc(-c3ccccc3)nc3c2c(C)nn3-c2ccccc2)c(OC)c1`, under setting [1], the AC50 was 6.31 µM [rising, partial curve, poor fit].
As for `CCOc1cc(-c2nc(-c3ccccc3)c(-c3cc([N+](=O)[O-])ccc3C)[nH]2)ccc1O`, the AC50 is 20 µM [rising, partial curve, poor fit] under setting [1] and 35.5 µM [rising, single point] under setting [2].
In the case of `COc1ccccc1C(=O)NCCn1cc(SCC(=O)NCc2ccco2)c2ccccc21`, the AC50 under setting [2] is 35.5 µM [rising, single point].
For `O=C(Cn1cnc2c(nnn2Cc2ccc(F)cc2)c1=O)NCc1ccc(F)cc1`, the concentration at half-maximal activity (AC50) under setting [2] was 7.94 µM [rising, partial curve].
Same read-out and setting: in the case of `Cc1cccc(CN2CCc3c(OCC(=O)N4CCCc5ccccc54)cccc3C2=O)c1` it was 35.5 µM [rising, single point]; in that of `CCNC(=S)N/N=C/c1cn(Cc2ccc(F)cc2)c2ccccc12`, 35.5 µM [rising, single point].
Regarding `Cc1nnc(SCC(=O)Nc2ccc3c(c2)OCO3)n(N)c1=O`, the concentration at half-maximal activity (AC50) under setting [1] was 0.00316 µM [rising, full curve, poor fit].
As to `CCn1c(C(=O)NCCCc2ccccc2)cc2sccc21`, the AC50 by setting is: under setting [1], 14.1 µM [rising, single point]; under setting [2], 15.8 µM [rising, single point].
Consider `Cc1ccccc1CNC(=O)C(=O)NCC(c1ccco1)S(=O)(=O)c1ccc(F)cc1` (configuration not stated), for which, under setting [1], the AC50 was 25.1 µM [falling, single point].
For `Cc1nc(C#N)c(N/N=C/c2cccc(Cl)c2)o1`, the AC50 under setting [2] is 35.5 µM [rising, single point].
Same read-out and setting: in the case of `CC(C)OC(=O)CSc1n[nH]c(-c2cccnc2)n1` it was 3.55 µM [rising, single point]; in that of `S=c1[nH]nc(-c2ccco2)n1/N=C/c1ccc(Cl)cc1`, 3.16 µM [rising, partial curve, poor fit]; in that of `COC(=O)c1ccc(Cn2c(=O)cc(C)c3c(C)nn(C)c32)cc1`, 0.158 µM [falling, partial curve].
With `CC(C)c1ccc(C(=O)N2CCCN(C(=O)c3ccc(C(C)C)cc3)CC2)cc1`, the AC50 under setting [2] is 25.1 µM [rising, single point].
On the same count and under the same terms, in the case of `O=C(N/N=C/c1coc2ccccc2c1=O)c1ccccc1` it was 0.0178 µM [rising, full curve, poor fit]; in that of `N#C/C(=C/c1ccc(N2CCCCC2)cc1)c1cccc(F)c1`, 11.2 µM [rising, partial curve].
Regarding `CCOC(=O)c1c(NC(=O)C(C)S(=O)(=O)c2cn(CC)c3ccccc23)sc2c1CCCC2` (configuration not stated), the AC50 under setting [1] is 25.1 µM [rising, single point].
In the case of `O=C(/C=C/c1ccc([N+](=O)[O-])cc1)NNC(=O)C1CC1`, under setting [2], the AC50 was 0.00355 µM [falling, full curve, poor fit].
Regarding `O=c1[nH]c(=O)c2nc(-c3ccc(Cl)cc3)cnc2[nH]1`, the AC50 under setting [1] was 0.1 µM [rising, full curve, poor fit].
As for `CN(C)c1ccc(C(CNC(=O)COc2ccccc2)N2CCOCC2)cc1` (configuration not stated), under setting [1], the AC50 is 7.94 µM [falling, partial curve, poor fit].
In the case of `COc1ccccc1C(=O)NCC(=O)N/N=C/c1cc(Br)ccc1OC(=O)/C=C\c1ccco1`, the AC50 is, setting by setting: under setting [1], 14.1 µM [rising, partial curve, poor fit]; under setting [2], 12.6 µM [rising, partial curve].
